Values from PubChem BioAssay AID1053208 (Peter MacCallum Cancer Centre, 2014).

- Assay: 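Find knock-downs that sensitise mouse osteosarcoma cells to doxorubicin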 (primary screen)
- Cells: mouse osteosarcoma cells, early-passage culture from an engineered mouse model of fibroblastic bone tumour
- Reagents: siRNA pool against mouse genes, 40 nM
- Timing: about 120 h (48 h before drug, then 72 h with drug)
- Challenge: doxorubicin 100 nM for 72 h, roughly 30-40% inhibitory dose
- Detection: 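Luminescent ATP signal taken as viability with or without 100 nM doxorubicin for 72 h; mean of two wells set against non-targeting siRNA and turned into robust z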
- Direction: viability z-score with doxorubicin: higher = more viable cells under doxorubicin; viability z-score without drug: higher = more viable cells with knock-down alone
- Call rule: 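Called active if knock-down leaves viability unchanged without drug (z within -2 to 2) but lowers it with doxorubicin (z at or under -2)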
The whole screen tested about 17,000 reagents; shown is a part drawn at random. 788 of them (4.7%) were called active. 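Calls rest on z-score classes alone; an extra cut-off of viability at most 70% of control was not applied to them.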 The numbers tell different reagents against one gene apart. Further read-outs or replicates are left out here.

Fam3c (FAM3 metabolism regulating signaling molecule C) — combined z-score class: no change with or without drug; viability z-score with doxorubicin: -1.35; viability z-score without drug: -0.51; outcome: inactive
Nap1l3 (nucleosome assembly protein 1-like 3) — combined z-score class: no change with or without drug; viability z-score with doxorubicin: -0.22; viability z-score without drug: -1.35; outcome: inactive
Fgfr3 (fibroblast growth factor receptor 3) — combined z-score class: no change with or without drug; viability z-score with doxorubicin: -0.45; viability z-score without drug: 0.17; outcome: inactive
Gpnmb (glycoprotein (transmembrane) nmb) — combined z-score class: no change with or without drug; viability z-score with doxorubicin: 0.22; viability z-score without drug: 0; outcome: inactive

2 entries from above, reformatted.
Nap1l3 (nucleosome assembly protein 1-like 3)
- combined z-score class: no change with or without drug
- viability z-score with doxorubicin: -0.22
- viability z-score without drug: -1.35
- outcome: inactive

Fgfr3 (fibroblast growth factor receptor 3)
- combined z-score class: no change with or without drug
- viability z-score with doxorubicin: -0.45
- viability z-score without drug: 0.17
- outcome: inactive

More reagents:
Gpatch2 (G patch domain containing 2) — combined z-score class: no change with or without drug; viability z-score with doxorubicin: -0.45; viability z-score without drug: -0.17; outcome: inactive
Pira6 (paired-Ig-like receptor A6) — combined z-score class: no change with or without drug; viability z-score with doxorubicin: 0.56; viability z-score without drug: -0.84; outcome: inactive
Dab2 (disabled 2, mitogen-responsive phosphoprotein) #1 — combined z-score class: no change with or without drug; viability z-score with doxorubicin: 0.45; viability z-score without drug: 0.17; outcome: inactive
Dab2 (disabled 2, mitogen-responsive phosphoprotein) #2 — combined z-score class: no change with or without drug; viability z-score with doxorubicin: 0.67; viability z-score without drug: 0.67; outcome: inactive
Cndp1 (carnosine dipeptidase 1) — combined z-score class: no change with or without drug; viability z-score with doxorubicin: -0.22; viability z-score without drug: -0.84; outcome: inactive
Nav1 (neuron navigator 1) — combined z-score class: no change with or without drug; viability z-score with doxorubicin: 0; viability z-score without drug: -0.84; outcome: inactive
Dera (deoxyribose-phosphate aldolase) — combined z-score class: no change with or without drug; viability z-score with doxorubicin: 1.12; viability z-score without drug: 1.01; outcome: inactive
Cdyl (chromodomain protein, Y chromosome-like) — combined z-score class: no change with or without drug; viability z-score with doxorubicin: -0.45; viability z-score without drug: 0.17; outcome: inactive
